Laboratory results as given in PubChem BioAssay AID493014 (National Center for Advancing Translational Sciences (NCATS), 2011).
In all, about 340,000 compounds went through this assay and about 170 (0.05%) were called active. The shares of active, inactive and inconclusive entries below differ from those in the screen. The call rests on the fitted dose curve; in most records, active means well fitted inhibition curve with a large enough effect in the signal ratio, with a control signal flat (not every such curve was filed as active); inconclusive means small, poorly fitted or top-dose-only effect, or effect the other way, or a change in a side signal; inactive means flat fitted curve, though single readings scatter; the % refers to the signal ratio. Potencies beside an inconclusive call are fits to weak or partial responses and may not hold up.
Potency means the concentration at half of the fitted maximal effect.

Experiment: qHTS Assay to Find Inhibitors of Chronic Active B-Cell Receptor Signaling;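 on activity change, negative = inhibition: plate controls were basal doxycycline-induced cells for no effect and cells given 10 µM MG132 for full effect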
Conditions: ABC-DLBCL IkBa-CBG/CBR reporter, luminescence ratio (green luciferase fused to IkBa over red control in TMD8 lymphoma cells), 4 h; activity change, negative = inhibition: at 46.1 µM (top of the series) unless noted
Summary of the method: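 Compounds up to 46 uM were incubated four hours with TMD8 cells whose green CBG68 luciferase is fused to IkappaBalpha; red CBR luminescence normalised the signal, and concentration-effect curves were fitted to fusion, red and ratio data.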
With `O=C(Nc1cccc(S(=O)(=O)N2CCOCC2)c1)c1ccc(N2CCCC2=O)cc1` the activity change, negative = inhibition was inconclusive: -7.21%.
In the case of `O=C(CSc1nnc(Cc2cccs2)n1C1CCCCC1)N1CCCc2ccccc21`, the Potency is reported as inconclusive: 23.1 µM [falling, single point].
In the case of `CC(=O)CCc1c(C)c2cc(C)ccc2[nH]c1=O`, the activity change, negative = inhibition is reported as inconclusive: 12.1%.
For `c1ccc2c(c1)CCN(Cc1nnnn1Cc1ccc3c(c1)OCO3)C2`, the “activity change, negative = inhibition” value was inactive: -5.89%.
With `Cc1cc(C)c(NC(=O)CSc2nnc3[nH]c(=O)cc(C)n23)c(C)c1` the “activity change, negative = inhibition” value was inactive: 9.88%.
For `CCCOc1ccc(-c2nn(-c3ccccc3)cc2/C=C2\SC(=S)N(C3CCS(=O)(=O)C3)C2=O)cc1` (configuration not stated), the activity change, negative = inhibition was inconclusive: 4.39%.
With `COc1cc(Br)ccc1C1CC(=O)C(C)C(c2ccc(Br)cc2OC)N1` (configuration not stated) the activity change, negative = inhibition was inconclusive: 7.84%.
With `CCn1c(CC(=O)Nc2ccccc2)nnc1SCC(=O)Nc1ccccc1C(=O)OC` the activity change, negative = inhibition was inconclusive: 4.7%.
In the case of `COc1cc(C(=O)NC(=S)NCc2ccco2)cc(OC)c1OC`, the activity change, negative = inhibition is reported as inconclusive: 0.202%.
With `Cc1ccc2c(c1)c(N=Nc1cccc(C(=O)O)c1)c(O)n2C` the Potency was inconclusive: 5.62 µM [rising, single point].
For `Cc1ccc(NC(=O)c2cnccn2)c(OC(F)F)c1`, the “activity change, negative = inhibition” value was inactive: 5.06%.
For `c1ccc(-c2cc(-c3nc4ccccc4[nH]3)c3ccccc3n2)cc1`, the activity change, negative = inhibition was inconclusive: 1.74%.
In the case of `CSc1nc(Oc2ccccc2)c2sccc2n1`, the activity change, negative = inhibition is reported as inconclusive: 15.9%.
In the case of `COc1cc(C(=O)OCC(=O)N(C)C)cc(NC(=O)c2ccco2)c1OC`, the activity change, negative = inhibition is reported as inconclusive: -1.12%.
In the case of `CC(=O)Oc1ccc2nc(/C=C/c3ccccc3)oc(=O)c2c1`, the activity change, negative = inhibition is reported as inconclusive: 209%.
For `O=C(CSc1ncnc2sc3c(c12)CCCC3)c1ccco1`, the “activity change, negative = inhibition” value was inactive: -1.81%.
With `Cc1ccc(-c2nn(-c3ccccc3)cc2/C=N/NC(=O)c2ccncc2)o1` the activity change, negative = inhibition was inconclusive: 6.73%.
For `Cn1c(C(=O)NCc2ccc3c(c2)OCO3)cc2sccc21`, the activity change, negative = inhibition was inconclusive: -0.728%.
With `Cc1ccc2cc(NC(=O)c3cccc(F)c3)ccc2n1` the Potency was inconclusive: 15.8 µM [falling, partial curve].
With `C=C(C)C1CC=C(C)/C(=N\NC(=O)CNc2cccc3ccccc23)C1` (configuration not stated) the activity change, negative = inhibition was inconclusive: 5.37%.
With `COc1cc(OC)c(NS(=O)(=O)c2cc(C(=O)OC(C)C(=O)NC3CC3)c(Cl)cc2Cl)cc1Cl` (configuration not stated) the “activity change, negative = inhibition” value was inactive: -1.15%.
In the case of `CCOC(=O)c1c(C)[nH]c(C)c1C(=O)COc1ccc(NC(=O)c2ccco2)cc1`, the activity change, negative = inhibition is reported as inconclusive: 5.47%.
For `CCOc1ccc(C(=O)OCC(=O)Nc2cccnc2Cl)cc1OCC`, the activity change, negative = inhibition was inconclusive: -0.976%.
In the case of `COc1nccnc1NS(=O)(=O)c1ccc(NC(=S)NC(=O)c2ccccc2)cc1`, the “activity change, negative = inhibition” value is reported as inactive: -0.931%.
In the case of `O=C1CSC(c2cccc(F)c2)N1c1ccc(O)cc1` (configuration not stated), the Potency is reported as inconclusive: 29.1 µM [falling, single point].
With `C/C(=N/NC(=O)c1ccco1)c1cccc(NC(=O)c2ccc(C)o2)c1` the Potency was inconclusive: 35.5 µM [falling, single point].
In the case of `Cc1sc2nc(CSCC(=O)Nc3ccccc3C#N)[nH]c(=O)c2c1C`, the “activity change, negative = inhibition” value is reported as inactive: 7.55%.
For `COc1ccc(C)cc1S(=O)(=O)NCC(c1ccc2c(c1)OCO2)N1CCN(C)CC1` (configuration not stated), the activity change, negative = inhibition was inconclusive: 1.35%.
In the case of `CCNC(=S)N/N=C(\C)c1cccc([N+](=O)[O-])c1`, the Potency is reported as inconclusive: 23.1 µM [falling, single point].
In the case of `COc1ccc(CNc2ccc(C)c(C)c2)c(OC)c1OC`, the activity change, negative = inhibition is reported as inconclusive: 2.97%.
With `N#CC1CN(Cc2ccccc2)CN(Cc2ccccc2)C1` the “activity change, negative = inhibition” value was inactive: 2.33%.
With `COc1cccc(CNC(=O)Cn2ccc3cc(S(=O)(=O)N4CCCC4)ccc32)c1` the activity change, negative = inhibition was inconclusive: 14.4%.
For `COc1ccc(S(=O)(=O)N2CCc3ccccc32)cc1C(=O)N(CC(C)C)C1CCS(=O)(=O)C1` (configuration not stated), the “activity change, negative = inhibition” value was inactive: 6.9%.
In the case of `COc1cc(C(=S)N2CCOCC2)ccc1OS(=O)(=O)c1ccccc1[N+](=O)[O-]`, the activity change, negative = inhibition is reported as inconclusive: -8.61%.
With `COCCCNCCCOc1ccc(Cl)cc1C(C)(C)C` the activity change, negative = inhibition was inconclusive: -17.9%.
In the case of `COc1cccc(C2c3[nH]c4ccccc4c3C[C@H]3C(=O)N(C4CCN(Cc5ccccc5)CC4)CC(=O)N23)c1` (some centres not stated), the activity change, negative = inhibition is reported as inconclusive: -14.4%.
For `COCCNC(=O)COC(=O)CSCc1nc2ccccc2s1`, the Potency was inconclusive: 7.94 µM [rising, partial curve, poor fit].
For `Cc1ccc(S(=O)(=O)NNC(=S)Nc2c(Cl)cccc2Cl)cc1`, the activity change, negative = inhibition was inconclusive: -13%.
In the case of `O=C(Nc1nc2nc(-c3ccccc3)cc(=O)n2[nH]1)c1ccc(F)cc1`, the activity change, negative = inhibition is reported as inconclusive: -4.38%.
With `O=C(NCCCN=C1NS(=O)(=O)c2ccccc21)c1ccc(S(=O)(=O)N2CCOCC2)cc1` the activity change, negative = inhibition was inconclusive: -12.9%.
With `O=C(CSc1ncnc2ccccc12)Nc1cccc(S(=O)(=O)N2CCOCC2)c1` the activity change, negative = inhibition was inconclusive: 0.839%.
For `CC(NCC(=O)Nc1ccccc1C(=O)NC1CC1)c1ccc(F)cc1F` (configuration not stated), the “activity change, negative = inhibition” value was inactive: 0.0878%.
For `COc1ccc(-c2cc(C(F)F)n3ncc(C(=O)N4CCCCC4)c3n2)cc1`, the “activity change, negative = inhibition” value was inactive: -25.1%.
In the case of `CCOC(=O)C1=C(C)N(c2ccccc2)C(=O)C1CC(=O)O` (configuration not stated), the activity change, negative = inhibition is reported as inconclusive: -1.33%.
With `Nc1ccc(Sc2cc(Cl)nc(N)n2)cc1` the Potency was inconclusive: 13 µM [falling, partial curve].
In the case of `O=C1/C(=C\c2ccc3ccccc3c2)CCCc2ccccc21`, the Potency is reported as inconclusive: 6.51 µM [falling, partial curve].
With `CC(=O)NNc1cc(C)nc(N)n1` the “activity change, negative = inhibition” value was inactive: 2.38%.
In the case of `NC(=O)Cn1c(=O)n(-c2ccccc2)c(=O)c2oc3ccccc3c21`, the “activity change, negative = inhibition” value is reported as inactive: 0.0899%.
In the case of `Cc1cccc(C)c1-n1c(C)cc(/C=C2\NC(=O)NC2=O)c1C`, the Potency is reported as inconclusive: 0.92 µM [falling, full curve, poor fit].
For `Nc1nc(NCc2ccco2)nc(NC2CCCCC2)c1[N+](=O)[O-]`, the activity change, negative = inhibition was inconclusive: -5.35%.
In the case of `COC(=O)c1ccc(NC(=O)c2nc(S(=O)(=O)Cc3cccc(C)c3)ncc2Cl)cc1`, the activity change, negative = inhibition is reported as inconclusive: -0.569%.
With `O=C(Nc1nnc(-c2ccc(Br)cc2)o1)C1=COCCO1` the Potency was inconclusive: 29.1 µM [falling, single point].
In the case of `O=C(OCC(=O)N1CCOCC1)c1cccc(F)c1`, the “activity change, negative = inhibition” value is reported as inactive: -21%.
For `CC1(C)OC(=O)C(=Cc2ccc(-c3ccc(S(N)(=O)=O)cc3)o2)C(=O)O1`, the activity change, negative = inhibition was inconclusive: -3.83%.
With `CC(C)n1c(=S)[nH]c2c1c(=O)[nH]c(=O)n2C` the “activity change, negative = inhibition” value was inactive: -1.41%.
In the case of `Cc1ccc(-c2nnn(CC(=O)N(Cc3ccco3)C(C(=O)NC(C)(C)C)c3ccc(C)o3)n2)o1` (configuration not stated), the activity change, negative = inhibition is reported as inconclusive: -5.82%.
For `O=C(Nc1ccc(SC(F)F)cc1)c1ccc(F)cc1`, the Potency was inconclusive: 10 µM [falling, partial curve, poor fit].
In the case of `O=C1C(c2ccc(F)cc2)N(CCc2ccccc2)C(=O)CN1C1CCCCC1` (configuration not stated), the activity change, negative = inhibition is reported as inconclusive: 0.326%.
For `Cc1ccc(C(=O)NCc2ccccn2)cc1NC1=NC2CS(=O)(=O)CC2S1` (configuration not stated), the “activity change, negative = inhibition” value was inactive: 4.49%.
In the case of `CCOc1ccccc1NC(=O)CSc1nnnn1-c1ccccc1`, the Potency is reported as inconclusive: 0.13 µM [falling, partial curve, poor fit].
With `CC(c1ccccc1)N1CCn2c(nc3cc(NC(=O)c4cccs4)ccc32)C1` (configuration not stated) the Potency was inconclusive: 29.1 µM [falling, single point].
For `COC(=O)c1[nH]c2ccc(F)cc2c1NC(=O)Nc1ccc(OC)cc1`, the “activity change, negative = inhibition” value was inactive: 2.06%.
In the case of `CCCCN1CCN=C1Nc1ccccc1`, the “activity change, negative = inhibition” value is reported as inactive: -0.508%.
For `Brc1cccc(-c2nnc3sc(CNC4CCCC4)cn23)c1`, the Potency was inconclusive: 4.61 µM [rising, partial curve, poor fit].
With `CCOC(=O)c1ccc(N2C(=O)c3n[nH]c(C)c3C2c2ccc(OC)cc2)cc1` (configuration not stated) the activity change, negative = inhibition was inconclusive: 3.22%.
For `Cn1nnnc1Sc1ncnc2scc(-c3ccc(C#N)cc3)c12`, the Potency was inconclusive: 29.1 µM [falling, single point].
With `COc1ccc(N2C(=O)c3ccccc3NC2c2ccccc2O)cc1` (configuration not stated) the activity change, negative = inhibition was inconclusive: -12.5%.
For `CCOc1ccc(C(=O)N2CCCC2)cc1`, the activity change, negative = inhibition was inconclusive: 3.47%.
With `Cc1cccc(NC(=S)NCCO)c1C` the “activity change, negative = inhibition” value was inactive: 1.26%.
For `Cc1nn(Cc2nnc(SCC(=O)Nc3cccc(C(F)(F)F)c3)n2C)c(C)c1[N+](=O)[O-]`, the “activity change, negative = inhibition” value was inactive: -4.08%.
With `Cc1cc(/C=C(\C#N)C(=O)Nc2ccccc2F)c(C)[nH]1` the Potency was inconclusive: 12.6 µM [falling, partial curve].
With `CC(C)c1nnc(NC(=O)CSc2nc3ccccc3s2)s1` the activity change, negative = inhibition was inconclusive: 11.2%.
For `Cn1cnc([N+](=O)[O-])c1S(=O)(=O)c1cccc(Cl)c1`, the activity change, negative = inhibition was inconclusive: 15.5%.
In the case of `CC(=O)NN1C(=O)/C(=C\c2ccc(Br)o2)SC1=S`, the Potency is reported as inconclusive: 18.4 µM [falling, single point].
In the case of `Cc1cc(C(=O)OC(C(=O)Nc2cccc(C(F)(F)F)c2)c2ccccc2)c(C)o1` (configuration not stated), the activity change, negative = inhibition is reported as inconclusive: 14%.
With `COc1ccc(N)cc1-n1cnnn1` the Potency was inconclusive: 17.8 µM [falling, partial curve, poor fit].
With `CC1=NN(C(=O)c2ccc(Cn3nc(C)c([N+](=O)[O-])c3C)o2)C(O)(C(F)(F)F)C1` (configuration not stated) the “activity change, negative = inhibition” value was inactive: -11.3%.
For `COc1cccc(-c2cc(C(=O)N3CCOCC3)no2)c1`, the Potency was inconclusive: 17.8 µM [falling, partial curve].
With `CCc1ccc(CNC(=O)c2nn(C)c3c2CS(=O)(=O)c2ccccc2-3)cc1` the “activity change, negative = inhibition” value was inactive: 0.391%.
With `COc1ccc(N2CCN(c3nc4c(c(=O)n(C)c(=O)n4C)n3Cc3ccccc3)CC2)cc1` the activity change, negative = inhibition was inconclusive: -0.339%.
With `O=C1c2ccccc2CN1C(CO)Cc1ccccc1` (configuration not stated) the activity change, negative = inhibition was inconclusive: -0.396%.
For `CC(C)/C=N\NC(=O)CCCCC(=O)N/N=C/C(C)C`, the Potency was inconclusive: 9.2 µM [falling, partial curve].
